Where a chain is given by its changes, count along the chain named. No constants are given. Whether binding was seen depends on the method and setting. Binding seen in cells or lysates may run through a third protein. Some results given as binding are weak or reduced against the parent protein; the word gives no strength. Where a sequence is shown, tags or fusion partners need not be part of it.

Amino acid sequences for entries named in this document (tags omitted).
UniProt O95832: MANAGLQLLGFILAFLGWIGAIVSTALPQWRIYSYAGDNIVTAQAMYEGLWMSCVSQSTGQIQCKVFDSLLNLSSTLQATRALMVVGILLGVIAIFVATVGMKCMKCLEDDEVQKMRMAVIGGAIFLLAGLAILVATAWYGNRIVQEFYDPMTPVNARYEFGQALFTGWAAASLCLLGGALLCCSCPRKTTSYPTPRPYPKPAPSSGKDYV
UniProt O14493: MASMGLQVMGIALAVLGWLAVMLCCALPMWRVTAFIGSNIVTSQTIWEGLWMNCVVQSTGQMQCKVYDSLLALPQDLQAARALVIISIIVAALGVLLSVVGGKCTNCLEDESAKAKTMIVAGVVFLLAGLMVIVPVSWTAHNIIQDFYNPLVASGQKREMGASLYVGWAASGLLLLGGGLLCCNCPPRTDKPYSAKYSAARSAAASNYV

Assay [1] has as its target T1, TMEM25-FL (residues 27–366), N-terminally FLAG- or HA-tagged, in HEK293 cells (human) (UniProt Q86YD3).
T1 sequence (chain, N-glycosylated (complex-type and high-mannose-type N-glycans)): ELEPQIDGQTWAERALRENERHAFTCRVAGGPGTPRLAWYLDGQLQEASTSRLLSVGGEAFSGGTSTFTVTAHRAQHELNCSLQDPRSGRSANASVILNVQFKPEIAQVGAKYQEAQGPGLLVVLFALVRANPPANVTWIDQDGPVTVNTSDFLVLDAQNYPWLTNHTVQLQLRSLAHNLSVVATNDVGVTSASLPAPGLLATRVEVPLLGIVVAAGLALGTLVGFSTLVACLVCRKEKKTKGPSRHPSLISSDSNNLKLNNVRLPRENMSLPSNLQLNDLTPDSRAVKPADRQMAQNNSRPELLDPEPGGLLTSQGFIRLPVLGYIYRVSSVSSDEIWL
Description: co-IP; trans: HEK293T cells expressing one tagged protein co-cultured to confluency with HEK293T cells expressing the other; lysate precipitated with anti-FLAG antibody; immunoblot.

Assay [2] addresses T2, TMEM25–HA (C-terminally HA-tagged TMEM25-FL, residues 27–366) (human) (UniProt Q86YD3).
T2 sequence: T1 sequence (chain, N-glycosylated (complex-type and high-mannose-type N-glycans))
Description: proximity ligation; Duolink PLA on fixed, permeabilised HEK293 cells expressing FLAG- and HA-tagged proteins; anti-FLAG rabbit polyclonal and anti-HA mouse monoclonal primary antibodies; signal at the plasma membrane of single cells (cis).

Assay [3] addresses T1, TMEM25-FL (residues 27–366), N-terminally FLAG- or HA-tagged, in HEK293 cells (human). The assay can be described thus: co-IP; cis: HEK293T cells co-transfected with two tagged proteins, cultured at low density; lysis in 150 mM NaCl, 4 mM EDTA, 10% glycerol, 0.5% Triton X-100, 50 mM Tris-HCl pH 7.5, 1 mM DTT; anti-FLAG (M2) or anti-HA (3F10) on protein G-Sepharose; immunoblot.

The target of assay [4] is T3, TMEM25-ΔICR (residues 27–268), FLAG-tagged, in HEK293 cells (human) (UniProt Q86YD3).
T3 sequence: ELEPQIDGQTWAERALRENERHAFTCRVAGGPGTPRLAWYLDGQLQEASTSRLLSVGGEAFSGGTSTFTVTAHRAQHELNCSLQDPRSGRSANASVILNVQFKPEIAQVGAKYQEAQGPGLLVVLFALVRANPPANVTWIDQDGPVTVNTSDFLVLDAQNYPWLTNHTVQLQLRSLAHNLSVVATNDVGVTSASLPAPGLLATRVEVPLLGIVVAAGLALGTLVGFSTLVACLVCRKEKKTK
The description is as above.

The target in assay [5] is T4, TMEM25-NQ (N106Q/N119Q/N162Q/N175Q/N192Q/N205Q), FLAG- or HA-tagged, in HEK293 cells (human) (UniProt Q86YD3).
T4 sequence: T1 sequence (chain, N-glycosylated (complex-type and high-mannose-type N-glycans)) with N80Q, N93Q, N136Q, N149Q, N166Q, N179Q
Described as above.

Assay [6] has as its target T1, TMEM25-FL (residues 27–366), N-terminally FLAG- or HA-tagged, in HEK293 cells (human). Description: co-IP; cis, with or without a co-expressed third protein: HEK293T cells triply transfected (HA–TMEM25, HA–JAM-A or Myc–Par3 as third protein), low density; anti-FLAG or anti-HA precipitation; immunoblot, band ratios.
Assay [7] deals with T5, TMEM25-ΔC (residues 27–362), HA-tagged, in HEK293 cells (human) (UniProt Q86YD3).
T5 sequence: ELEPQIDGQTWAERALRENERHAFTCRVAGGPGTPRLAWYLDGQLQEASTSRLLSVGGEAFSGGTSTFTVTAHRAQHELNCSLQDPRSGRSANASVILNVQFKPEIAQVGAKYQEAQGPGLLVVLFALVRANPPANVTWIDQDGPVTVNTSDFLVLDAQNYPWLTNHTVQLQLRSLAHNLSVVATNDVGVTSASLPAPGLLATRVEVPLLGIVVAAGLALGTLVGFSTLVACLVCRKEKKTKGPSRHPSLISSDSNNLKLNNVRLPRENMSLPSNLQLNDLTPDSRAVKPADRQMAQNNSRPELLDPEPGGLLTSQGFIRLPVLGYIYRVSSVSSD
The assay is described as above.

Regarding “claudin-1 (residues 1–211), FLAG- or Myc-tagged, in HEK293 cells (from UniProt O95832 1-211)”, the binding entry in assay [1], in assay [2], in assay [3], in assay [4], in assay [5] and in assay [6] was “binds” throughout. Moreover, in assay [7], the binding result is on record as “binds”.
Turning to “claudin-4 (residues 1–209), FLAG-tagged, in HEK293 cells (from UniProt O14493 1-209)”, in assay [3], the binding result is given as “no binding”.

The record behind these values is paper PMC10897455.
